No constants are given. Whether binding was seen depends on the method and setting. Some binding calls cover weakened binding; strength is not graded here.
Biological target: T1, Smc6-3C-Twin-Strep (S. cerevisiae, UniProt Q12749 1-1114)
T1 construct: Smc6, S. cerevisiae; stood in the assays as a subunit of the hexamer or octamer; also called Smc6-Twin-Strep; Smc6-3C-TS; source: E. coli (DE3) Rosetta, co-expressed with the other subunits of the hexamer, purified as part of the complex; not shown: Twin-Strep (after a 3C site), C-terminal, kept
T1 sequence (looked up): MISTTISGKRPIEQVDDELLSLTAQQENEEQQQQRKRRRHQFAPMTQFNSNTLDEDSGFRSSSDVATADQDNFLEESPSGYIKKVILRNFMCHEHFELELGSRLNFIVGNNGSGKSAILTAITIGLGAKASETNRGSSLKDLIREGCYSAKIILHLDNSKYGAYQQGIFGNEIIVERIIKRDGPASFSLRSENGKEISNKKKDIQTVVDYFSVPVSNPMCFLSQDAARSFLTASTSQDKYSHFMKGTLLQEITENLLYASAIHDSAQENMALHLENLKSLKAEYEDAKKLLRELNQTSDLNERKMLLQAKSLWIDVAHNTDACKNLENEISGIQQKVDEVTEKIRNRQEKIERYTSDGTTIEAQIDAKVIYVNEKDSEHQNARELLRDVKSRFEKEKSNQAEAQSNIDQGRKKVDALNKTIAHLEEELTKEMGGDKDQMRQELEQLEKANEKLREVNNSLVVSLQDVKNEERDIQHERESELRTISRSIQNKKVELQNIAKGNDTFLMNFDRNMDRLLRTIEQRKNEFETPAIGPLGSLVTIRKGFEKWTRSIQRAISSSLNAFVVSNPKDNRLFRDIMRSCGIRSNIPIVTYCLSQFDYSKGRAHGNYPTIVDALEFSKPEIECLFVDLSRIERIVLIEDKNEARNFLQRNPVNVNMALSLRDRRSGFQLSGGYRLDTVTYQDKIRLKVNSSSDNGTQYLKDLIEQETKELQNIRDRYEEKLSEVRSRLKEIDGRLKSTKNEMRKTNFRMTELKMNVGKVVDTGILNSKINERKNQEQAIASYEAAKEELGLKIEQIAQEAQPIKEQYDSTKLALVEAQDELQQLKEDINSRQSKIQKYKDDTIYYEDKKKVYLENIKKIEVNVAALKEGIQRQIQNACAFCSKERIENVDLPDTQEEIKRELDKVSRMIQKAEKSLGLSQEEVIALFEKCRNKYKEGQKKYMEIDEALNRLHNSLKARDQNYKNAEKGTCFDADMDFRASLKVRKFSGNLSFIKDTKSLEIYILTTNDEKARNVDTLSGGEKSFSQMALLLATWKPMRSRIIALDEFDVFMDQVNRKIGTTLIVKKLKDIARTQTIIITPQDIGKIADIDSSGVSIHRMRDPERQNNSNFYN
Experiment: co-purification; six subunits co-expressed in E. coli from one plasmid; captured by the Twin-Strep-tag on Smc6 (StrepTrap), then heparin and gel filtration; single species on analytical gel filtration, peak fractions on SDS-PAGE

binding: binds
B1: Smc5 (natural protein, S. cerevisiae, UniProt Q08204 1-1093, looked up)
chain: MTSLIDLGRYVERTHHGEDTEPRSKRVKIAKPDLSSFQPGSIIKIRLQDFVTYTLTEFNLSPSLNMIIGPNGSGKSTFVCAVCLGLAGKPEYIGRSKKVEDFIKNGQDVSKIEITLKNSPNVTDIEYIDARDETIKITRIITRSKRRSDYLINDYQVSESVVKTLVAQLNIQLDNLCQFLSQERVEEFARLKSVKLLVETIRSIDASLLDVLDELRELQGNEQSLQKDLDFKKAKIVHLRQESDKLRKSVESLRDFQNKKGEIELHSQLLPYVKVKDHKEKLNIYKEEYERAKANLRAILKDKKPFANTKKTLENQVEELTEKCSLKTDEFLKAKEKINEIFEKLNTIRDEVIKKKNQNEYYRGRTKKLQATIISTKEDFLRSQEILAQTHLPEKSVFEDIDIKRKEIINKEGEIRDLISEIDAKANAINHEMRSIQRQAESKTKSLTTTDKIGILNQDQDLKEVRDAVLMVREHPEMKDKILEPPIMTVSAINAQFAAYLAQCVDYNTSKALTVVDSDSYKLFANPILDKFKVNLRELSSADTTPPVPAETVRDLGFEGYLSDFITGDKRVMKMLCQTSKIHTIPVSRRELTPAQIKKLITPRPNGKILFKRIIHGNRLVDIKQSAYGSKQVFPTDVSIKQTNFYQGSIMSNEQKIRIENEIINLKNEYNDRKSTLDALSNQKSGYRHELSELASKNDDINREAHQLNEIRKKYTMRKSTIETLREKLDQLKREARKDVSQKIKDIDDQIQQLLLKQRHLLSKMASSMKSLKNCQKELISTQILQFEAQNMDVSMNDVIGFFNEREADLKSQYEDKKKFVKEMRDTPEFQSWMREIRSYDQDTKEKLNKVAEKYEEEGNFNLSFVQDVLDKLESEIAMVNHDESAVTILDQVTAELRELEHTVPQQSKDLETIKAKLKEDHAVLEPKLDDIVSKISARFARLFNNVGSAGAVRLEKPKDYAEWKIEIMVKFRDNAPLKKLDSHTQSGGERAVSTVLYMIALQEFTSAPFRVVDEINQGMDSRNERIVHKAMVENACAENTSQYFLITPKLLTGLHYHEKMRIHCVMAGSWIPNPSEDPKMIHFGETSNYSFD
notes: Smc5, S. cerevisiae; stood in the assays as a subunit of the hexamer or octamer; source: E. coli (DE3) Rosetta, co-expressed with the other subunits of the hexamer, purified as part of the complex

From PMC8327961, “Nse5/6 inhibits the Smc5/6 ATPase and modulates DNA substrate binding” (The EMBO Journal, 2021)
